## Library screen at single concentrations

Chains of the proteins cited; added tags and fusions are not shown. Residues count along the entry.
UniProt Q8IDJ8, 1-583: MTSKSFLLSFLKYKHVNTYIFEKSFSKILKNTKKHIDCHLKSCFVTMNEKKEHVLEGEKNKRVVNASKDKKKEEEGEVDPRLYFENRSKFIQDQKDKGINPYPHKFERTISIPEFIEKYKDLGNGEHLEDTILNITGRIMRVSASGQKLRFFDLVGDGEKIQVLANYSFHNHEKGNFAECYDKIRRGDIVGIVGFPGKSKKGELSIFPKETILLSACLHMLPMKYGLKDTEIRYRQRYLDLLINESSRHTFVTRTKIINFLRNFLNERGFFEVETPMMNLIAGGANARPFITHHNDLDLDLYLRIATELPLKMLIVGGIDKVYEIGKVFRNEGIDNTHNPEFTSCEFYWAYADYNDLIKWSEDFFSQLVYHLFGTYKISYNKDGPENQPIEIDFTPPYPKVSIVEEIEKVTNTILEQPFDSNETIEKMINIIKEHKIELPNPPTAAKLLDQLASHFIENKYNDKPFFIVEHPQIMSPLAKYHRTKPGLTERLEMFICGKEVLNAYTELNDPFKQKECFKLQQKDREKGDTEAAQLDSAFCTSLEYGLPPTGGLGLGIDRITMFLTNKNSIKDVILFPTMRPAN
UniProt P9WFT3, whole entry: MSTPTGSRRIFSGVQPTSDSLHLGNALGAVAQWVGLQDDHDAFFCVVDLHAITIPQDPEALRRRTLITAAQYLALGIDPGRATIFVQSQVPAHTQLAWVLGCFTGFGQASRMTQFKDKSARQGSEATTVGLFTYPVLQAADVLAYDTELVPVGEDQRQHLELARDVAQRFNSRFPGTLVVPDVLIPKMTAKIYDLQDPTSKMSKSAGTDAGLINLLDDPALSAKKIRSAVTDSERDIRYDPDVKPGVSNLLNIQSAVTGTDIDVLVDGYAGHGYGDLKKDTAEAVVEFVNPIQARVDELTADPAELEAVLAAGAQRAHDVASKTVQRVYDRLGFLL

Measurements from “University of Dundee, Small-Polar-MMV Screening Library” (2021), ChEMBL document CHEMBL3988442.

PfKRS1: 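Enzyme assay of the cytosolic lysyl-tRNA synthetase in 384-well plates, read by luminescence. Target: Lysine-tRNA ligase, Plasmodium falciparum 3D7 (UniProt Q8IDJ8). Tested at 30 µM. Higher reads as stronger inhibition, judged from the few compounds that gave an IC50. About 69,000 compounds were tested under these conditions; 0.071% (about 49) showed 50% or more at least once.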
MtTrpRS: 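Tryptophan-tRNA ligase, Mycobacterium tuberculosis (UniProt P9WFT3). Enzyme assay of tryptophanyl-tRNA synthetase; the read-out is not stated. Compounds at 10 µM. Direction is not recorded; retested compounds ran higher, which suggests that high means inhibition. About 65,000 compounds were tested under these conditions; 0.098% (about 64) showed 50% or more at least once.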
Leishmania in macrophages: 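Cell assay of Leishmania donovani living inside macrophages; the read-out is not stated. Compounds at 30 µM. Direction is inferred from retests: higher values go with stronger inhibition. Of about 69,000 compounds tested this way, about 1,000 (1.5%) reached 50% or more in at least one test.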

Results are given as percent effect.
How 0% and 100% were set is not recorded. Most values in the screen are low, and negative values occur.
Compounds were drawn at random from those tested, without regard to their results.
Two or more numbers in one place are separate tests of the same structure; such repeats can differ widely.
A dash means the value is not listed here; it may have been measured.

- [H][C@@]12CCCO[C@]1([H])[C@@H](OCc1cccnc1)CN2C(=O)C1=CCCC1 : Leishmania in macrophages: 19.3%
- O=C(Cc1ccc2c(c1)CCC2)N1CCN(c2cnccn2)CC1 : PfKRS1: 0.2109%; MtTrpRS: -4.191%; Leishmania in macrophages: -11.97%
- COc1cc(C)c(S(=O)(=O)NCc2cccnc2N(C)C)c(C)c1 : PfKRS1: 3.342%; MtTrpRS: -2.274%; Leishmania in macrophages: 37.68%
- Cc1cc(C)n(CC(C)NC2CCN(Cc3cccnc3)CC2)n1 (centres unmarked) : PfKRS1: 0.6896%; MtTrpRS: -5.74%; Leishmania in macrophages: 19.59%
- Cc1ccc(C(C(=O)N2CC(c3ccccn3)C2)N(C)C)cc1 (centres unmarked) : PfKRS1: -4.287%; MtTrpRS: 0.4836%; Leishmania in macrophages: -3.49%
- N#Cc1ccc(C(=O)N2CC(c3nc(-c4ncccn4)no3)C2)cc1 : PfKRS1: 4.787%; MtTrpRS: -5.395%; Leishmania in macrophages: 10.86% and 17.26%
- O=C1CN(Cc2occc2C(=O)NCCc2ccc(F)cc2)CCN1 : PfKRS1: 0.1057%; MtTrpRS: 1.375%; Leishmania in macrophages: 2.91%
- CN1CC(Oc2ccccc2)=NC(SCC(=O)c2ccccc2)=N1 : PfKRS1: 2.85%; MtTrpRS: 1.288%; Leishmania in macrophages: 0.1155%
- Cc1ccc(NS(=O)(=O)c2cnn(-c3ccccc3)c2)c(C(=O)O)c1 : PfKRS1: 0.7593%; MtTrpRS: 1.202%; Leishmania in macrophages: -4.661%
- CC(C)OCCC(=O)NCCc1csc(N2CCCC2)n1 : PfKRS1: -2.425%; MtTrpRS: 0.07241%; Leishmania in macrophages: 5.234%
- CC(C)c1noc(CS(=O)(=O)CC(=O)NCc2cccs2)n1 : PfKRS1: 2.75%; MtTrpRS: -10.17%; Leishmania in macrophages: 21.99%
- CC(=O)Nc1ncc(S(=O)(=O)Nc2ccc(F)cc2F)s1 : PfKRS1: 4.793%; MtTrpRS: -1.005%; Leishmania in macrophages: -42.64%
- Cn1cccc1C(=O)NC1CCN(c2ccc(OC(F)(F)F)cc2)CC1 : PfKRS1: -2.444%; MtTrpRS: 0.4691%; Leishmania in macrophages: 15.1%
- CSc1ccc(CN(C(=O)c2cc[nH]n2)C2CC2)cc1 : PfKRS1: 3.58%; MtTrpRS: -4.262%; Leishmania in macrophages: 3.552%
- Cc1noc(C)c1C(=O)N[C@@H]1CCC[C@@H](Oc2ccccc2)[C@@H]1O : PfKRS1: 2.27%; MtTrpRS: -4.373%; Leishmania in macrophages: 16.97%
- [H][C@]12CC[C@]([H])(CC(=O)N(C)C1)N2C(=O)c1cc2ccccc2[nH]c1=O : Leishmania in macrophages: 39.86%
- COCCN1C[C@@H]2[C@@H](OC)CCN(Cc3ccncc3)[C@@H]2C1 : PfKRS1: 5.088%; MtTrpRS: 0.9009%
- Cc1cccc(N2CCOCC3(C2)CN(c2ccccc2)C(=O)CO3)n1 (centres unmarked) : PfKRS1: 3.103%
- Cc1ccc(C)c(S(=O)(=O)N2CCN(C)C3(CCC(=O)N(C)CC3)C2)c1 (centres unmarked) : PfKRS1: 2.375%; MtTrpRS: -0.2075%; Leishmania in macrophages: 14.3%
- Cc1cccc(CN2CCc3ncnc(N4CCCC4)c3CC2)n1.O=C(O)C(F)(F)F : Leishmania in macrophages: 43.68%
- O=C(O)C(F)(F)F.O=C(O)C(F)(F)F.O=C1CC2(CCN(Cc3ccccn3)C2)CN1c1cccnc1 (centres unmarked) : Leishmania in macrophages: -2.914%
- FC(F)CNc1cnc(C2CCNCC2)cn1 : PfKRS1: 5.024%; MtTrpRS: -2.243%
- CO[C@@H]1CCN(S(=O)(=O)c2cn(C)cn2)[C@H]1Cc1ccncc1 : PfKRS1: 0.0365%; MtTrpRS: -1.208%
- COCCOCC(=O)N1CCC(O)(c2ccc3nc(C)ccc3c2)CC1 : PfKRS1: -0.4455%; MtTrpRS: -0.4617%; Leishmania in macrophages: 14.63%

The first 3 entries again:

SMILES,PfKRS1,MtTrpRS,Leishmania in macrophages
[H][C@@]12CCCO[C@]1([H])[C@@H](OCc1cccnc1)CN2C(=O)C1=CCCC1,-,-,19.3
O=C(Cc1ccc2c(c1)CCC2)N1CCN(c2cnccn2)CC1,0.2109,-4.191,-11.97
COc1cc(C)c(S(=O)(=O)NCc2cccnc2N(C)C)c(C)c1,3.342,-2.274,37.68